Experimental data published in PubChem BioAssay AID2685 (National Center for Advancing Translational Sciences (NCATS), 2010).
The other results are listed elsewhere or left out. The main result of the screen is listed elsewhere. These columns were measured beside it and carry no call. Compounds called inactive in the main read-out are mostly missing here. Potencies come from curve fits of mixed quality, noted in brackets.

Test: qHTS Assay for Lipid Storage Modulators in Drosophila S3 Cells;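 for cell number change: cells counted by Cell Tracker Red CMTPX staining in the red channel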
Conditions: BODIPY lipid droplet fluorescence, 18-24 h; for cell number change: measured here: cell count max response, cells fed with added oleic acid
How it was run: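 Drosophila S3 cells got compounds at several concentrations plus oleic acid (400 uM solution). Laser-scanning cytometry with 488 nm excitation read lipid droplets at 500-530 nm and cells at 575-640 nm. Percent activity was relative to 20 uM Triacsin C.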

[1] = measured here: lipid fluorescence (Fed channel) AC50, cells fed with added oleic acid
[2] = measured here: cell number channel AC50, cells fed with added oleic acid

Row | SMILES | cell number change | AC50 [1] | AC50 [2]
1 | CCN(CC(=O)Nc1ccc(NC(C)=O)cc1)C(=O)c1cccnc1Sc1ccc(C)c(C)c1 | 9.77% | 13 µM [falling, partial curve, poor fit] | –
2 | CN(C)S(=O)(=O)c1ccc(C(=O)Nc2ccc(Cl)cc2)cc1 | 25.7% | 6.51 µM [rising, single point] | –
3 | Cc1noc(C)c1S(=O)(=O)N(CC(=O)N1CCn2c1nc1ccccc12)c1ccc(C(C)C)cc1 | 11.1% | – | –
4 | Cc1[nH]n(-c2cccc3ccccc23)c(=O)c1/C=N/NC(=O)c1cccc([N+](=O)[O-])c1 | 0.493% | 2.06 µM [rising, full curve, poor fit] | –
5 | Cc1ccc(S(=O)(=O)N2CCCC2CNC(=O)c2ccccc2)cc1 (centres undefined) | -100% | 2.59 µM [falling, single point] | 8.2 µM [falling, partial curve]
6 | O=C(COc1ccc(Cl)cc1)Nc1ccccc1C(=O)NCc1cccnc1 | -21.9% | 20.6 µM [falling, partial curve, poor fit] | –
7 | Cc1cc2c(c(=O)o1)C(C1C=CCCC1)C(C#N)=C(N)O2 (centres undefined) | 29.3% | – | 1.64 µM [rising, full curve, poor fit]
8 | CC(=O)NS(=O)(=O)c1ccc(NS(=O)(=O)c2ccc(F)cc2)cc1 | -12.7% | 23.1 µM [falling, partial curve] | –
9 | CC12CCC(C(=O)N3CCc4ccccc43)(CC1=O)C2(C)C (centres undefined) | 8% | – | –
10 | CC1(C(=O)O)CCC(C(=O)NC2CCCCC2)C1(C)C (centres undefined) | -54.8% | 29.1 µM [falling, single point] | 29.1 µM [falling, single point]
11 | CC(C)NC(=O)CN(Cc1ccc(F)cc1)C(=O)CCC(=O)Nc1ccccn1 | -1.3% | – | –
12 | CCC(CC)c1nnc(NC(=O)C2CC(=O)N(CCc3ccc(OC)c(OC)c3)C2)s1 (centres undefined) | 27% | – | –
13 | Cc1ccc(C(=O)Nc2cccc(C(F)(F)F)c2)cc1NC(=O)c1nccn1C | 26% | 0.0731 µM [rising, full curve, poor fit] | –
14 | COc1ccc(N2CCN(C(=O)CSc3nnc(C)c(=O)[nH]3)CC2)cc1 | – | 23.1 µM [falling, partial curve] | –
15 | COc1ccc(CNC(=O)C2CCN(S(=O)(=O)N3CCCCC3)CC2)cc1 | – | 0.58 µM [rising, single point] | –
16 | COc1ccc(N2CCN(C(=O)CCC(=O)N3CCOc4ccc(C)cc43)CC2)cc1 | 10.4% | – | –
17 | CN(CCCNC(=O)c1ccc(CS(=O)c2ccc(Br)cc2)o1)Cc1ccccc1 (centres undefined) | -9.44% | 29.1 µM [falling, single point] | –
18 | Cc1ccc(SCc2cc(=O)[nH]c(N3CCN(Cc4ccc5c(c4)OCO5)CC3)n2)cc1 | -20.2% | 3.66 µM [falling, full curve] | –
19 | Cc1ccc(-c2nc(N3CCN(C)CC3)c3ccccc3n2)cc1 | 2.07% | 3.26 µM [rising, full curve, poor fit] | –
20 | COc1ccc2ccccc2c1/C=N/NC(=O)c1cccc(Br)c1 | 17% | 9.2 µM [rising, partial curve] | –

Row | SMILES | cell number change | AC50 [1] | AC50 [2]
21 | CN1CCN(c2nnc(-c3ccc(F)cc3)c3ccccc23)CC1 | 25.4% | – | –
22 | O=C(Nc1ccc(F)cc1F)c1csc(-c2cccs2)n1 | 47.7% | 29.1 µM [rising, single point] | 20.6 µM [rising, single point]
23 | NC(=O)C1CCN(CC(=O)Nc2cc(Cl)ccc2Oc2ccccc2)CC1 | -7.2% | 5.8 µM [falling, single point] | –
24 | CCOC(=O)c1c(NC(=O)CSc2n[nH]c(N)n2)sc(CC)c1C | 1.19% | 3.26 µM [rising, single point] | –
25 | CCn1c(SCC(=O)N2CCCc3ccccc32)nnc1-c1cccs1 | – | 3.26 µM [rising, partial curve] | –
26 | CC1(C)Cc2c(cnn2-c2cccc(F)c2)C(NC(=O)CSc2ccccn2)C1 (centres undefined) | -8.26% | 0.82 µM [falling, single point] | –
27 | CCCOC(=O)c1[nH]c2c(c1C)C(=O)CC(c1cccs1)C2 (centres undefined) | -27.8% | 14.6 µM [falling, partial curve, poor fit] | 1.46 µM [falling, full curve, poor fit]
28 | CN(CCC1CCCCO1)C(=O)CCc1nnc(Cc2c[nH]c3ccccc23)o1 (centres undefined) | 30.4% | – | 3.66 µM [rising, full curve, poor fit]
29 | CCOc1c(Br)cc(/C=N\NC(=O)c2ccccc2)cc1OC | – | 14.6 µM [rising, partial curve] | –
30 | CN(C(=O)COC(=O)Cc1c(Cl)cccc1Cl)C1CCS(=O)(=O)C1 (centres undefined) | -17% | 0.103 µM [falling, full curve, poor fit] | –
31 | CCCN1CCC(=O)N([C@H](CN=[N+]=[N-])CC(C)C)CC1 | 7.77% | – | –
32 | C=CCn1c(SCC(=O)c2c(N)n(CCC)c(=O)n(C)c2=O)nc2sc(CC)cc2c1=O | 84.1% | 1.03 µM [rising, full curve] | –
33 | CCSC1=NCCN1C(=O)c1c(-c2ccccc2Cl)noc1C | 105% | 29.1 µM [rising, single point] | 29.1 µM [rising, single point]
34 | O=C(NC1CCCC1)c1cccc2c1C(=O)c1ccc(/C=C/c3ccccc3)cc1S2(=O)=O | -8.93% | – | –
35 | OC(CNCCc1ccc(C(F)(F)F)cc1)COc1cccc2ccccc12 (centres undefined) | -87.3% | – | 18.4 µM [falling, single point]
36 | Cc1cc(S(=O)(=O)Nc2ccc(C(=O)N3CCN(C(=O)c4ccco4)CC3)cc2)ccc1F | 31.9% | – | –
37 | COc1ccc(NC(=O)CN(C)CC(=O)Nc2ccc3c(c2)CCC3)cc1 | 16.8% | 8.2 µM [rising, partial curve] | –
38 | COc1ccc2c(c1)CC/C(=C\Nc1ccc3c(c1)OCO3)C2=O | – | 3.26 µM [rising, partial curve, poor fit] | 0.206 µM [rising, full curve]
39 | CC(C)CCNC(=O)C1CCCN(S(=O)(=O)c2ccc(F)cc2)C1 (centres undefined) | -1.76% | – | –

Some of the entries so far, with each value named:
O=C(COc1ccc(Cl)cc1)Nc1ccccc1C(=O)NCc1cccnc1
  cell number change: -21.9%; AC50 [1]: 20.6 µM [falling, partial curve, poor fit]
CC1(C(=O)O)CCC(C(=O)NC2CCCCC2)C1(C)C (centres undefined)
  cell number change: -54.8%; AC50 [1]: 29.1 µM [falling, single point]; AC50 [2]: 29.1 µM [falling, single point]
NC(=O)C1CCN(CC(=O)Nc2cc(Cl)ccc2Oc2ccccc2)CC1
  cell number change: -7.2%; AC50 [1]: 5.8 µM [falling, single point]
